Measurements reported in PubChem BioAssay AID602196 (INSERM, 2012).
Assay: 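Knock-downs that protect lung cancer cells from cisplatin or sensitise them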. System: human A549 lung cancer cells. Reagents: siRNA pair against human genes. Timing: 48 h transfection before cisplatin; time from cisplatin to read-out not stated. Challenge: cisplatin at a dose killing half of control-siRNA cells; exact dose and duration not given. Measured: 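Cisplatin cell death as a shift from the 50% death seen with control siRNA; siRNAs toxic or growth-blocking alone scored 0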. Direction: two-siRNA summed score (-2 to +2): higher = both siRNAs protect from cisplatin killing; -2 means both sensitise. Call rule: 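Each siRNA scores 0 if harmful alone by LDH or WST-1, otherwise +1 if it reduces and -1 if it increases cisplatin killing; a gene is active when both siRNAs agree (sum +2 or -2)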. Meaning of the calls: active = both siRNAs shift cisplatin killing the same way; inactive = no consistent shift, or siRNA harmful alone.
This is an unselected part of about 23,000 reagents. 455 of them (2%) were called active. 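Active includes both protection and sensitisation; some change values fall well beyond the stated -50 to +50 range.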 Further read-outs or replicates are left out here. The record does not give: the amount of reagent.

two-siRNA summed score (-2 to +2)	activity call	Gene
0	inactive	SLC24A3
0	inactive	NEURL2
0	inactive	ORC2
0	inactive	MUCL1
1	inactive	GYPB
0	inactive	LOC400638
0	inactive	ABCC9
1	inactive	SCLT1
0	inactive	HELZ2
0	inactive	DDX21
1	inactive	GTF2A1L
0	inactive	PLD6
1	inactive	CHERP
0	inactive	CIRBP-AS1
1	inactive	PSMD3
1	inactive	FLJ44796 (retired record)

Sorted by “two-siRNA summed score (-2 to +2)” (ascending): 7 of the entries above.
two-siRNA summed score (-2 to +2)	activity call	Gene
0	inactive	HELZ2
0	inactive	DDX21
0	inactive	PLD6
0	inactive	CIRBP-AS1
1	inactive	GTF2A1L
1	inactive	CHERP
1	inactive	PSMD3

The list goes on.
two-siRNA summed score (-2 to +2)	activity call	Gene
0	inactive	YRDC
0	inactive	LOC388610
-1	inactive	TRAPPC1
0	inactive	KCNT1
0	inactive	LTN1
0	inactive	LOC341511
-1	inactive	TAS2R40
0	inactive	OR8B12
0	inactive	LOC440350
0	inactive	RPP25L
-1	inactive	GIMAP6
0	inactive	MYADML
0	inactive	RSBN1
0	inactive	GOLGA6EP
0	inactive	TMEM254
0	inactive	FTHL17
0	inactive	LOC401029
0	inactive	LOC390407
0	inactive	LOC441032
-1	inactive	OVOL1
0	inactive	MFN2
0	inactive	LOC401492
0	inactive	PHF21A
